The list shows a part of the results. These are further read-outs of the screen, such as a control signal, another cell line or another target. No call is given for them. The list favours compounds with an active or inconclusive main result. Potencies come from curve fits of mixed quality, noted in brackets.
Assay: qHTS Assay for Lipid Storage Modulators in Drosophila S3 Cells;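 as to cell number change: cells counted by Cell Tracker Red CMTPX staining in the red channel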
Settings: BODIPY lipid droplet fluorescence, 18-24 h; for cell number change: measured here: cell count max response, cells fed with added oleic acid
How it was run: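 Drosophila S3 cells loaded with oleic acid (400 uM, as added) and compounds at several concentrations; lipid droplets imaged by 488-nm laser-scanning cytometry, 500–530 nm intensity and object ratio to cell channel. Percent activity normalized to 20 uM Triacsin C.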

[1] = measured here: lipid fluorescence (Fed channel) AC50, cells fed with added oleic acid
[2] = measured here: cell number channel AC50, cells fed with added oleic acid

Compound	cell number change	AC50 [1]	AC50 [2]
COc1cccc(/C=C/C(=O)NNC(=O)c2ccncc2)c1OC	17.1%	5.17 µM [rising, full curve]	
Cc1nn(CC(=O)NCCC2=CCCCC2)c(C)c1[N+](=O)[O-]	-38.2%		0.0517 µM [falling, full curve, poor fit]
CCCSc1nsc(NC(=O)C(c2ccccc2)c2ccccc2)n1	-144%	29.1 µM [falling, single point]	29.1 µM [falling, single point]
Cc1ccc(-n2nnnc2SCC(=O)Nc2sc(C)c(C)c2C#N)cc1C		2.06 µM [rising, partial curve]	
COc1ccc(OCC(=O)NCC(c2ccc(OC)cc2)N2CCCCC2)cc1 (configuration not stated)	20.3%		
COCCCNC(=O)CSc1ccc(Cl)cc1	-185%	29.1 µM [falling, partial curve]	25.9 µM [falling, partial curve]
Nc1ccc(O)cc1C(=O)OCC(=O)C12CC3CC(CC(C3)C1)C2	-15.1%	0.58 µM [falling, full curve, poor fit]	
CC(=O)c1cccc(S(=O)(=O)N2CCN(c3nc4cc(C)cc(C)c4cc3C#N)CC2)c1	2.1%	0.103 µM [rising, full curve, poor fit]	
COc1ccccc1C1(O)CCN(CC(=O)Nc2c(C)nn(C)c2C)CC1	12.6%	7.31 µM [rising, full curve, poor fit]	
Cc1ccc(C(=O)N2CCSCC2)cc1	0.533%	0.651 µM [falling, full curve]	
Cn1c(C(=O)N2CCOCC2)cc2c(=O)n3ccccc3nc21	-4.86%		
COc1ccc(N=C2C(=O)Nc3c(C)cccc32)cc1	25.6%	0.82 µM [falling, single point]	
COc1ccc(OC)c(-c2csc(NC(=O)CN3C(=O)NC4(CCCC4)C3=O)n2)c1	-18%		
COC(=O)c1c(-c2ccccc2)csc1N1C(=O)Nc2ccccc2N1O	-4.09%	1.84 µM [falling, single point]	
CCN1CCN(CCNC(=O)CSCc2nc(-c3ccc(OC)c(OC)c3)oc2C)CC1	0.799%	18.4 µM [rising, partial curve]	
O=C(COC(=O)c1ccccc1O)Nc1ccc(S(=O)(=O)N2CCCCC2)cc1		0.13 µM [falling, full curve, poor fit]	0.092 µM [falling, full curve, poor fit]
C=CCN1C=CC(=CC=C(C#N)C#N)C=C1	-42.8%	29.1 µM [falling, single point]	7.31 µM [falling, partial curve]
CC(=O)c1ccc2c(c1)CC(C)C(=O)N2C (configuration not stated)	3.83%	0.13 µM [falling, full curve, poor fit]	
CSc1ccc(CCNS(=O)(=O)c2ccc3c(c2)C(C)(C)C(=O)N3C)cc1	1.9%	29.1 µM [rising, single point]	
COc1ccc(NC(=O)Cc2coc3cc(C)ccc23)cn1	-17.9%	0.651 µM [falling, partial curve, poor fit]	
CCC(=O)N1CCc2cc(S(=O)(=O)N3CCCCC3CC)ccc21 (configuration not stated)	-11.3%		6.51 µM [falling, single point]
CCCCOc1ccc(N=Nc2ccc(N)nc2N)cn1	-32.5%	1.84 µM [rising, full curve, poor fit]	16.4 µM [falling, single point]
COc1cccc(C(=O)NC(C)CCc2ccccc2)c1 (configuration not stated)	18.1%	29.1 µM [falling, single point]	
O=c1c2c(c(-c3ccccc3)nn1Cc1ccccc1)CCCC2	14.2%	1.46 µM [rising, partial curve]	1.46 µM [rising, partial curve]
Cc1ccc(NC(=O)CN2CCCC2)cc1	2.05%	4.61 µM [rising, single point]	
CCCCC(=O)Nc1nnc(S(=O)(=O)N(C)Cc2ccco2)s1		29.1 µM [rising, single point]	
COC(=O)c1ccc(NS(=O)(=O)c2ccccc2)o1	-9.63%	2.59 µM [falling, single point]	
Cc1cccc(OCc2nnc(SCC(=O)c3c(N)n(C4CC4)c(=O)[nH]c3=O)o2)c1	-15.5%		
O=C(CSc1nc2nc(-c3cccs3)cc(C(F)(F)F)c2c(=O)[nH]1)C(F)(F)F	-17.4%	32.6 µM [falling, single point]	

As a short view, some entries already given:
Compound	cell number change	AC50 [1]	AC50 [2]
CCCSc1nsc(NC(=O)C(c2ccccc2)c2ccccc2)n1	-144%	29.1 µM [falling, single point]	29.1 µM [falling, single point]
Cc1ccc(-n2nnnc2SCC(=O)Nc2sc(C)c(C)c2C#N)cc1C		2.06 µM [rising, partial curve]	

From PubChem BioAssay AID2685 (National Center for Advancing Translational Sciences (NCATS), 2010)
